Results published in patent US7544707B2, “Bicyclic derivatives as PPAR modulators” (Eli Lilly and Company, priority 2003, dated 2009).
At least one structure is not confirmed: it was looked up by name or label, or the drawing left a doubt.

Assay: LDL-cholesterol, total-cholesterol and triglyceride lowering in hypercholesterolemic hamsters
Format: in vivo, Syrian hamsters
Conditions: 200 mg/kg by gavage daily for 14 days; high-fat cholesterol-rich diet hamsters; compared to vehicle

Structure (SMILES): CC(C)OC(=O)C(C)(C)Oc1ccc(C(=O)c2ccc(Cl)cc2)cc1 [fenofibrate]
- reduction in total cholesterol and triglyceride levels: did not show significant efficacy
